PubChem BioAssay AID1224828, NIAID | 2016
Test: 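Find genes required for NF-kappaB p65 moving into the nucleus after LPS in mouse macrophages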 (primary screen). Cells: mouse RAW264.7 G9 macrophage reporter cells (GFP-p65, Tnf promoter-mCherry). Reagent: siRNA pool against mouse genes, 100 nM. Duration: 2 days siRNA transfection, then 40 min LPS before fixation. Conditions: LPS (Salmonella minnesota R595) at 10 ng/ml. Measured: 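Microscopy ratio of nuclear to perinuclear-ring GFP-p65 signal, scaled to the plate median; gene score is the average of two replicate robust z-scores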. Scale: p65 translocation robust z-score: higher = more nuclear NF-kappaB p65 after LPS than the plate median; nuclear/cytoplasmic p65 ratio: higher = more nuclear NF-kappaB p65. Call rule: 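Called active when z exceeds 3.3 or falls under -1.56 (median of Tlr4 controls), giving activity score of at least 50; no calls for control wells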. Meaning of the calls: active = hit (p65 shift raised or lowered); inactive = no clear change.
Here is one part, drawn at random, of about 17,000 reagents. Of all reagents, 762 (4.5%) are marked active. 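Active calls include both raised and lowered p65 entry, mostly lowered; wells with fewer than 50 cells lack a z-score.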 The raw values are shown without normalisation. Reagents against one gene are numbered here. No sequences are given here.

no.	gene	reagent	p65 translocation robust z-score	nuclear/cytoplasmic p65 ratio, rep 1	nuclear/cytoplasmic p65 ratio, rep 2	low cell count flag	Call
1	Kyat3 (GeneID 229905)	1	-1.38	1.36	1.62	enough cells to score	inactive
2	Usp1 (GeneID 230484)	1	1.52	1.66	1.78	enough cells to score	inactive
3	En1 (GeneID 13798)	1	-0.6	1.35	1.32	enough cells to score	inactive
4	Cd300c2 (GeneID 140497)	1	0.56	1.51	1.44	enough cells to score	inactive
5	Epha5 (GeneID 13839)	1	-1.35	1.34	1.33	enough cells to score	inactive
6	Celf4 (GeneID 108013)	1	0.56	1.42	1.7	enough cells to score	inactive
7	Zfp523 (GeneID 224656)	1	0.26	1.58	1.51	enough cells to score	inactive
8	Mef2c (GeneID 17260)	1		1.27	1.14	fewer than 50 cells per well; well left out of scoring	inactive
9	Rfx3 (GeneID 19726)	1	2.5	1.85	1.89	enough cells to score	inactive
10	Rwdd3 (GeneID 66568)	1	2.4	1.72	1.78	enough cells to score	inactive
11	Rwdd3 (GeneID 66568)	2		1.02	1.01	fewer than 50 cells per well; well left out of scoring	inactive
12	Nr6a1 (GeneID 14536)	1	-1.17	1.36	1.2	enough cells to score	inactive
13	4933414I15Rik (GeneID 74408)	1		1.3	1.35	fewer than 50 cells per well; well left out of scoring	inactive
14	Me1 (GeneID 17436)	1	1.31	1.64	1.49	enough cells to score	inactive
15	Slc1a1 (GeneID 20510)	1	-0.05	1.61	1.42	enough cells to score	inactive
16	Il17f (GeneID 257630)	1	0.1	1.58	1.43	enough cells to score	inactive
17	Zkscan3 (GeneID 72739)	1	0.05	1.4	1.27	enough cells to score	inactive
18	Snph (GeneID 241727)	1	1.88	1.38	1.44	enough cells to score	inactive
19	A730018C14Rik (GeneID 100504733)	1	2.24	1.74	1.84	enough cells to score	inactive
20	Dis3l (GeneID 213550)	1	1.32	1.59	1.9	enough cells to score	inactive
21	Pmm2 (GeneID 54128)	1	-0.44	1.45	1.34	enough cells to score	inactive
22	F830004M19Rik (GeneID 320224)	1	0.46	1.49	1.54	enough cells to score	inactive
23	Trip13 (GeneID 69716)	1	0.53	1.63	1.53	enough cells to score	inactive
24	Pomgnt1 (GeneID 68273)	1		1.17	1.07	fewer than 50 cells per well; well left out of scoring	inactive
25	Smyd5 (GeneID 232187)	1		1.67	1.04	fewer than 50 cells per well; well left out of scoring	inactive
26	Ptpn7 (GeneID 320139)	1	0.25	1.71	1.59	enough cells to score	inactive
27	Ss18l2 (GeneID 26901)	1	0.33	1.59	1.63	enough cells to score	inactive
28	Rela (GeneID 19697)	1	-2.42	1.29	1.07	enough cells to score	active
29	Or4c114 (GeneID 258901)	1	1.02	1.86	1.69	enough cells to score	inactive
30	Adam12 (GeneID 11489)	1	-0.05	1.63	1.6	enough cells to score	inactive
31	Hirip3 (GeneID 233876)	1	-0.79	1.49	1.5	enough cells to score	inactive
32	Scand1 (GeneID 19018)	1	-0.35	1.46	1.22	enough cells to score	inactive
33	Pigt (GeneID 78928)	1	-0.06	1.43	1.24	enough cells to score	inactive
34	Erf (GeneID 13875)	1	-0.64	1.32	1.34	enough cells to score	inactive
35	Nif3l1 (GeneID 65102)	1	1.04	1.8	1.74	enough cells to score	inactive
36	Cblif (GeneID 14603)	1	-0.72	1.43	1.19	enough cells to score	inactive
37	B3gnt9 (GeneID 97440)	1	-0.02	1.58	1.79	enough cells to score	inactive
38	Cimip2b (GeneID 329831)	1	-0.88	1.2	1.13	enough cells to score	inactive
39	Fis1 (GeneID 66437)	1		1.56	1.43	fewer than 50 cells per well; well left out of scoring	inactive
40	Pgrmc1 (GeneID 53328)	1	0.21	1.52	1.44	enough cells to score	inactive
41	Usp3 (GeneID 235441)	1	0.25	1.64	1.45	enough cells to score	inactive
42	Bmp10 (GeneID 12154)	1	-1.24	1.25	1.37	enough cells to score	inactive
43	Sphk1 (GeneID 20698)	1		1.25	1.02	fewer than 50 cells per well; well left out of scoring	inactive
44	Inpp5f (GeneID 101490)	1	1.67	1.69	1.61	enough cells to score	inactive
45	Timm10b (GeneID 14356)	1	-0.19	1.64	1.37	enough cells to score	inactive
46	Rhox3a (GeneID 382209)	1		1.14	1.58	fewer than 50 cells per well; well left out of scoring	inactive
47	Rxfp3 (GeneID 239336)	1	-0.71	1.46	1.42	enough cells to score	inactive
48	Dnaaf10 (GeneID 103784)	1	0.87	1.46	1.84	enough cells to score	inactive
49	Endou (GeneID 19011)	1	-0.36	1.49	1.32	enough cells to score	inactive
50	Farsa (GeneID 66590)	1	-1.38	1.31	1.18	enough cells to score	inactive
51	Nod2 (GeneID 257632)	1	0.97	1.78	1.74	enough cells to score	inactive
52	Robo4 (GeneID 74144)	1		1.39	1.16	fewer than 50 cells per well; well left out of scoring	inactive
53	Blnk (GeneID 17060)	1	-0.58	1.56	1.34	enough cells to score	inactive
54	Atp9a (GeneID 11981)	1	-0.34	1.54	1.59	enough cells to score	inactive
55	Spsb3 (GeneID 79043)	1		1.09	0.892	fewer than 50 cells per well; well left out of scoring	inactive
56	Shfl (GeneID 319278)	1	1.85	1.21	1.79	enough cells to score	inactive
57	Garin2 (GeneID 70897)	1		1.61	2.08	fewer than 50 cells per well; well left out of scoring	inactive
58	Vmn1r30 (GeneID 171195)	1		1.26	1.19	fewer than 50 cells per well; well left out of scoring	inactive
59	H2ac8 (GeneID 319166)	1	1.86	1.87	1.63	enough cells to score	inactive

Only “low cell count flag”, for 3 of the entries above:
Blnk (GeneID 17060): enough cells to score
Atp9a (GeneID 11981): enough cells to score
Spsb3 (GeneID 79043): fewer than 50 cells per well; well left out of scoring
